{"source": "PubChem BioAssay AID1159578 (Peter MacCallum Cancer Centre, 2015)", "screen": "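Genome-wide hunt for genes controlling movement of lymphatic endothelial cells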 (primary screen)", "cells": "human lymphatic endothelial cells", "reagent": "siRNA pool against human genes, 40 nM", "time to read-out": "48 h after transfection", "measurement": "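Cells stained with dye and imaged after a scratch; covered wound area and nuclei counted, duplicates averaged, migration set against mock wells and turned into a robust z-score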", "scale": "migration robust z-score: higher = faster migration into the scratch; nuclei per well: higher = more cells in the well", "call rule": "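Pools averaging fewer than 3300 nuclei are never called; remaining pools count as changed when migration robust z lies outside -2 to 2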", "calls": "active = migration changed; inactive = no migration change, or too few cells", "note": "The deposit covers about 18,000 reagents; shown is an unselected part. About 1,030 of all reagents (5.7%) were called active. 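Inactive calls also include pools with fewer than 3300 nuclei, whose migration was not assessed.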 The raw values are shown without normalisation. Not all columns of the deposit are shown."}
{"gene":"HFE (homeostatic iron regulator)","migration robust z-score":-2.38,"migration class with cell-count check":"under 3300 nuclei; migration not judged","nuclei per well, duplicate mean":2814,"outcome":"inactive"}
{"gene":"CYSTM1 (cysteine rich transmembrane module containing 1)","migration robust z-score":-1.54,"migration class with cell-count check":"migration z between -2 and 2; enough cells","nuclei per well, duplicate mean":3650,"outcome":"inactive"}
{"gene":"USP2 (ubiquitin specific peptidase 2)","migration robust z-score":0.39,"migration class with cell-count check":"migration z between -2 and 2; enough cells","nuclei per well, duplicate mean":4510,"outcome":"inactive"}
{"gene":"FUBP1 (far upstream element binding protein 1)","migration robust z-score":-0.44,"migration class with cell-count check":"migration z between -2 and 2; enough cells","nuclei per well, duplicate mean":5824,"outcome":"inactive"}
{"gene":"C3 (complement C3)","migration robust z-score":-0.43,"migration class with cell-count check":"migration z between -2 and 2; enough cells","nuclei per well, duplicate mean":5002,"outcome":"inactive"}
{"gene":"TRUB1 (TruB pseudouridine synthase family member 1)","migration robust z-score":-0.31,"migration class with cell-count check":"migration z between -2 and 2; enough cells","nuclei per well, duplicate mean":5994,"outcome":"inactive"}
{"gene":"HES6 (hes family bHLH transcription factor 6)","migration robust z-score":0.28,"migration class with cell-count check":"migration z between -2 and 2; enough cells","nuclei per well, duplicate mean":5494,"outcome":"inactive"}
{"gene":"NKG7 (natural killer cell granule protein 7)","migration robust z-score":0.22,"migration class with cell-count check":"migration z between -2 and 2; enough cells","nuclei per well, duplicate mean":5449,"outcome":"inactive"}
{"gene":"PAX4 (paired box 4)","migration robust z-score":0.47,"migration class with cell-count check":"migration z between -2 and 2; enough cells","nuclei per well, duplicate mean":6253,"outcome":"inactive"}
{"gene":"FARSA (phenylalanyl-tRNA synthetase subunit alpha)","migration robust z-score":-1.61,"migration class with cell-count check":"migration z between -2 and 2; enough cells","nuclei per well, duplicate mean":6746,"outcome":"inactive"}
{"gene":"NEURL2 (neuralized E3 ubiquitin protein ligase 2)","migration robust z-score":0.16,"migration class with cell-count check":"migration z between -2 and 2; enough cells","nuclei per well, duplicate mean":5697,"outcome":"inactive"}
{"gene":"STUM (stum, mechanosensory transduction mediator homolog)","migration robust z-score":-3.81,"migration class with cell-count check":"under 3300 nuclei; migration not judged","nuclei per well, duplicate mean":2722,"outcome":"inactive"}
{"gene":"GK (glycerol kinase)","migration robust z-score":0.44,"migration class with cell-count check":"migration z between -2 and 2; enough cells","nuclei per well, duplicate mean":4525,"outcome":"inactive"}

An excerpt taken from the entries so far:
{"gene":"TRUB1 (TruB pseudouridine synthase family member 1)","migration robust z-score":-0.31,"migration class with cell-count check":"migration z between -2 and 2; enough cells","nuclei per well, duplicate mean":5994,"outcome":"inactive"}
{"gene":"HES6 (hes family bHLH transcription factor 6)","migration robust z-score":0.28,"migration class with cell-count check":"migration z between -2 and 2; enough cells","nuclei per well, duplicate mean":5494,"outcome":"inactive"}

More results follow.
{"gene":"DRAXIN (dorsal inhibitory axon guidance protein)","migration robust z-score":0.39,"migration class with cell-count check":"migration z between -2 and 2; enough cells","nuclei per well, duplicate mean":5508,"outcome":"inactive"}
{"gene":"CDK18 (cyclin dependent kinase 18)","migration robust z-score":-2.31,"migration class with cell-count check":"under 3300 nuclei; migration not judged","nuclei per well, duplicate mean":3192,"outcome":"inactive"}
{"gene":"LPAR3 (lysophosphatidic acid receptor 3)","migration robust z-score":-1.84,"migration class with cell-count check":"migration z between -2 and 2; enough cells","nuclei per well, duplicate mean":3620,"outcome":"inactive"}
{"gene":"ADAM22 (ADAM metallopeptidase domain 22)","migration robust z-score":1.17,"migration class with cell-count check":"migration z between -2 and 2; enough cells","nuclei per well, duplicate mean":6518,"outcome":"inactive"}
{"gene":"SLC37A1","migration robust z-score":-0.05,"migration class with cell-count check":"migration z between -2 and 2; enough cells","nuclei per well, duplicate mean":4707,"outcome":"inactive"}
{"gene":"FRMD5 (FERM domain containing 5)","migration robust z-score":-0.16,"migration class with cell-count check":"migration z between -2 and 2; enough cells","nuclei per well, duplicate mean":6366,"outcome":"inactive"}
{"gene":"CCSAP (centriole, cilia and spindle associated protein)","migration robust z-score":0.9,"migration class with cell-count check":"migration z between -2 and 2; enough cells","nuclei per well, duplicate mean":6310,"outcome":"inactive"}
{"gene":"NAP1L1 (nucleosome assembly protein 1 like 1)","migration robust z-score":-0.32,"migration class with cell-count check":"migration z between -2 and 2; enough cells","nuclei per well, duplicate mean":5674,"outcome":"inactive"}
